According to the supplement of paper PMC7666118:
Some of the results follow.

Amino acid sequences for entries named in this document (tags omitted). A change or cut given only in a name is not applied to a line headed by its entry.
UniProt Q7Z2E3: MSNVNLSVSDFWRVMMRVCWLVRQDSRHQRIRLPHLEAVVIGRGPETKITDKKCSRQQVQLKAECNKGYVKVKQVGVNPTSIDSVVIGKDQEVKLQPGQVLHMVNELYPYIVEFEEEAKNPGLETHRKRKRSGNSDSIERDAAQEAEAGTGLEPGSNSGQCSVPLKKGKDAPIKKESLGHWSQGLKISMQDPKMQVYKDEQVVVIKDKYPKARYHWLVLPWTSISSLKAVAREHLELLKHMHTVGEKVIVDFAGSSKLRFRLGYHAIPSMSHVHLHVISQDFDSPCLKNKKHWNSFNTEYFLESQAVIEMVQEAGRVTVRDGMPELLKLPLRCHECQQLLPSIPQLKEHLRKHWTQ
UniProt P42025, whole entry: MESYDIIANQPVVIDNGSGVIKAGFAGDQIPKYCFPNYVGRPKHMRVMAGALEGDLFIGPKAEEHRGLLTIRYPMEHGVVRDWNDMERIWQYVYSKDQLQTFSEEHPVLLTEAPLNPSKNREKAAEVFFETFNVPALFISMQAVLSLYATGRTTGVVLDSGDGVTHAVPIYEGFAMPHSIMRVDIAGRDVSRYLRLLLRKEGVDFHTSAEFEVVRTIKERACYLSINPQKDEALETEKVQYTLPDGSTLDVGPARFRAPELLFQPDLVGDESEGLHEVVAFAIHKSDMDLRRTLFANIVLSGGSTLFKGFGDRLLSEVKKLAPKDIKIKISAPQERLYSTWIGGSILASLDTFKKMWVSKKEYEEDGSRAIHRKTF
UniProt Q9NX46: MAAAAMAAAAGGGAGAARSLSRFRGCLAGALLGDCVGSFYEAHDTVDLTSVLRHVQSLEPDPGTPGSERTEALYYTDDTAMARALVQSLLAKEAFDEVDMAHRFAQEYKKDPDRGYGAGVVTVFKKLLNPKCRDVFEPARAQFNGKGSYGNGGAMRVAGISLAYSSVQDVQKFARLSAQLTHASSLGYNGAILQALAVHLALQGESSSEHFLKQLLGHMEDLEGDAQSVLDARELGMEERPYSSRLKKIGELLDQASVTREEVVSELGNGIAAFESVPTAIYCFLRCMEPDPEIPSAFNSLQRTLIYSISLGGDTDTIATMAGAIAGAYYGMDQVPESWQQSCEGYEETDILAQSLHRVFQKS
UniProt Q9NUQ2: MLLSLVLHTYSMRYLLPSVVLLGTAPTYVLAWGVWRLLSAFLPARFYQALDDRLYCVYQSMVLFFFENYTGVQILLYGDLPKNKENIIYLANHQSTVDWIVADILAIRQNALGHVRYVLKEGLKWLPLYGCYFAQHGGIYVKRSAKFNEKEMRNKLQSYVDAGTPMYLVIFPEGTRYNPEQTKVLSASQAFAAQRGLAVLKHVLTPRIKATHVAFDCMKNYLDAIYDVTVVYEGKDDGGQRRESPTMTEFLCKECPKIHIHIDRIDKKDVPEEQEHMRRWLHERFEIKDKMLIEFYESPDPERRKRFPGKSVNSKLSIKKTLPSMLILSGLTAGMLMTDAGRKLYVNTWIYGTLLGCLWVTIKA
UniProt Q6ZTN6: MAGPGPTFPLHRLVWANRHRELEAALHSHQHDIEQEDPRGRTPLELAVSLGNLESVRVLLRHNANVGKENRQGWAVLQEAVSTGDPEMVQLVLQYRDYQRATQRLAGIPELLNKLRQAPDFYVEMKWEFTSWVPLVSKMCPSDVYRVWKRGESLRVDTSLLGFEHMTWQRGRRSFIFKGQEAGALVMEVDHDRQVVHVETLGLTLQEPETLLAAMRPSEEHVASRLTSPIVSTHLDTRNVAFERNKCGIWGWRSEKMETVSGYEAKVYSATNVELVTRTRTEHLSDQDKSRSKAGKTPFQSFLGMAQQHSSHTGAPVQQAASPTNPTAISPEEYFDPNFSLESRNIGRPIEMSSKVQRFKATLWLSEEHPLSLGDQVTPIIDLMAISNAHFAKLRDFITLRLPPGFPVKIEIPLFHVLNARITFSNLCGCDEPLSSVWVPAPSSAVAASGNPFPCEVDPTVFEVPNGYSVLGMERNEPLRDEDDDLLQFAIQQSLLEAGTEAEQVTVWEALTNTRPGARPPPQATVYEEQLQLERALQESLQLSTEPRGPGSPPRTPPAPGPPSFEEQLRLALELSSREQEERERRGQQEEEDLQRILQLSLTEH
UniProt P12814, whole entry: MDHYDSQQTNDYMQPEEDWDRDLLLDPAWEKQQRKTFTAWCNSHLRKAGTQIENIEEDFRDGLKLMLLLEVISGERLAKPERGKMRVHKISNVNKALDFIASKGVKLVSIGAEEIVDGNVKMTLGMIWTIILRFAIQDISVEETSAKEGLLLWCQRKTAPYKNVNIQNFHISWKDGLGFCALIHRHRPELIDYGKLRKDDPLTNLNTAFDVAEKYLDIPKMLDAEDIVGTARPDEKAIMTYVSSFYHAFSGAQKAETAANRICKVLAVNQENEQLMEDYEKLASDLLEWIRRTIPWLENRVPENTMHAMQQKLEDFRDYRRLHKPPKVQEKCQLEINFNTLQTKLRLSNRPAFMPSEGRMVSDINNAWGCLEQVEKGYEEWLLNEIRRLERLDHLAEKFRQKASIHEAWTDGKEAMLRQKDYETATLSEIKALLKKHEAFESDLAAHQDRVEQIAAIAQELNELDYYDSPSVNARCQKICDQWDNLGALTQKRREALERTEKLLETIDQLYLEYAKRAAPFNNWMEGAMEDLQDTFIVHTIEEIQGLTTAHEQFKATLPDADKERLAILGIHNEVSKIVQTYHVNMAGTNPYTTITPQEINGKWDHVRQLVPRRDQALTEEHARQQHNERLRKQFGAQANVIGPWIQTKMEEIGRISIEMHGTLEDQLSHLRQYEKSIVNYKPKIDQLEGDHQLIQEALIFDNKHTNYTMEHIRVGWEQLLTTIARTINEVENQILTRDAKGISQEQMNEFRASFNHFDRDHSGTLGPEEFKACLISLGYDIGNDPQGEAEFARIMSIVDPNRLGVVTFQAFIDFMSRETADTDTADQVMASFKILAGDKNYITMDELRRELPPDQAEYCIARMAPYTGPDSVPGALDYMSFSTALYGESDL
UniProt Q96A54: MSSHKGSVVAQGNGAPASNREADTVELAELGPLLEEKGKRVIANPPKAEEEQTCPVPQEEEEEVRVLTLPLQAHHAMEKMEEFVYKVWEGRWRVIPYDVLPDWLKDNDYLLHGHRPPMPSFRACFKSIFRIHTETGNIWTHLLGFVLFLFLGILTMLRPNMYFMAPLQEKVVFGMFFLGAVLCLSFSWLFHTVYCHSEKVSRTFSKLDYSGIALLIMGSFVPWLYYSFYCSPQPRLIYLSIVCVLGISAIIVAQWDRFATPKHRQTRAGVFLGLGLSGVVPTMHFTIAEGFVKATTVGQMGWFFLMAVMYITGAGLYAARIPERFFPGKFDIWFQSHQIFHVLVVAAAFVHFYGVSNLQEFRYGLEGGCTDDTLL
UniProt P08758: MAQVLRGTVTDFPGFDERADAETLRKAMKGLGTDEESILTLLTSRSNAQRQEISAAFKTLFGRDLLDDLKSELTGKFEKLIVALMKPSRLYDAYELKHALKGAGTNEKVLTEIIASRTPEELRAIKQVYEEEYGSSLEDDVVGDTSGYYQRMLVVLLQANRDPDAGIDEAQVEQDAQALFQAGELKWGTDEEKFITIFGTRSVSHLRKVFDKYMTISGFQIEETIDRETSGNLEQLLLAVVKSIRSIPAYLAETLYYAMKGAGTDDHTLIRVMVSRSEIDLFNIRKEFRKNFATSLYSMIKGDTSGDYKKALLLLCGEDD
UniProt O75179: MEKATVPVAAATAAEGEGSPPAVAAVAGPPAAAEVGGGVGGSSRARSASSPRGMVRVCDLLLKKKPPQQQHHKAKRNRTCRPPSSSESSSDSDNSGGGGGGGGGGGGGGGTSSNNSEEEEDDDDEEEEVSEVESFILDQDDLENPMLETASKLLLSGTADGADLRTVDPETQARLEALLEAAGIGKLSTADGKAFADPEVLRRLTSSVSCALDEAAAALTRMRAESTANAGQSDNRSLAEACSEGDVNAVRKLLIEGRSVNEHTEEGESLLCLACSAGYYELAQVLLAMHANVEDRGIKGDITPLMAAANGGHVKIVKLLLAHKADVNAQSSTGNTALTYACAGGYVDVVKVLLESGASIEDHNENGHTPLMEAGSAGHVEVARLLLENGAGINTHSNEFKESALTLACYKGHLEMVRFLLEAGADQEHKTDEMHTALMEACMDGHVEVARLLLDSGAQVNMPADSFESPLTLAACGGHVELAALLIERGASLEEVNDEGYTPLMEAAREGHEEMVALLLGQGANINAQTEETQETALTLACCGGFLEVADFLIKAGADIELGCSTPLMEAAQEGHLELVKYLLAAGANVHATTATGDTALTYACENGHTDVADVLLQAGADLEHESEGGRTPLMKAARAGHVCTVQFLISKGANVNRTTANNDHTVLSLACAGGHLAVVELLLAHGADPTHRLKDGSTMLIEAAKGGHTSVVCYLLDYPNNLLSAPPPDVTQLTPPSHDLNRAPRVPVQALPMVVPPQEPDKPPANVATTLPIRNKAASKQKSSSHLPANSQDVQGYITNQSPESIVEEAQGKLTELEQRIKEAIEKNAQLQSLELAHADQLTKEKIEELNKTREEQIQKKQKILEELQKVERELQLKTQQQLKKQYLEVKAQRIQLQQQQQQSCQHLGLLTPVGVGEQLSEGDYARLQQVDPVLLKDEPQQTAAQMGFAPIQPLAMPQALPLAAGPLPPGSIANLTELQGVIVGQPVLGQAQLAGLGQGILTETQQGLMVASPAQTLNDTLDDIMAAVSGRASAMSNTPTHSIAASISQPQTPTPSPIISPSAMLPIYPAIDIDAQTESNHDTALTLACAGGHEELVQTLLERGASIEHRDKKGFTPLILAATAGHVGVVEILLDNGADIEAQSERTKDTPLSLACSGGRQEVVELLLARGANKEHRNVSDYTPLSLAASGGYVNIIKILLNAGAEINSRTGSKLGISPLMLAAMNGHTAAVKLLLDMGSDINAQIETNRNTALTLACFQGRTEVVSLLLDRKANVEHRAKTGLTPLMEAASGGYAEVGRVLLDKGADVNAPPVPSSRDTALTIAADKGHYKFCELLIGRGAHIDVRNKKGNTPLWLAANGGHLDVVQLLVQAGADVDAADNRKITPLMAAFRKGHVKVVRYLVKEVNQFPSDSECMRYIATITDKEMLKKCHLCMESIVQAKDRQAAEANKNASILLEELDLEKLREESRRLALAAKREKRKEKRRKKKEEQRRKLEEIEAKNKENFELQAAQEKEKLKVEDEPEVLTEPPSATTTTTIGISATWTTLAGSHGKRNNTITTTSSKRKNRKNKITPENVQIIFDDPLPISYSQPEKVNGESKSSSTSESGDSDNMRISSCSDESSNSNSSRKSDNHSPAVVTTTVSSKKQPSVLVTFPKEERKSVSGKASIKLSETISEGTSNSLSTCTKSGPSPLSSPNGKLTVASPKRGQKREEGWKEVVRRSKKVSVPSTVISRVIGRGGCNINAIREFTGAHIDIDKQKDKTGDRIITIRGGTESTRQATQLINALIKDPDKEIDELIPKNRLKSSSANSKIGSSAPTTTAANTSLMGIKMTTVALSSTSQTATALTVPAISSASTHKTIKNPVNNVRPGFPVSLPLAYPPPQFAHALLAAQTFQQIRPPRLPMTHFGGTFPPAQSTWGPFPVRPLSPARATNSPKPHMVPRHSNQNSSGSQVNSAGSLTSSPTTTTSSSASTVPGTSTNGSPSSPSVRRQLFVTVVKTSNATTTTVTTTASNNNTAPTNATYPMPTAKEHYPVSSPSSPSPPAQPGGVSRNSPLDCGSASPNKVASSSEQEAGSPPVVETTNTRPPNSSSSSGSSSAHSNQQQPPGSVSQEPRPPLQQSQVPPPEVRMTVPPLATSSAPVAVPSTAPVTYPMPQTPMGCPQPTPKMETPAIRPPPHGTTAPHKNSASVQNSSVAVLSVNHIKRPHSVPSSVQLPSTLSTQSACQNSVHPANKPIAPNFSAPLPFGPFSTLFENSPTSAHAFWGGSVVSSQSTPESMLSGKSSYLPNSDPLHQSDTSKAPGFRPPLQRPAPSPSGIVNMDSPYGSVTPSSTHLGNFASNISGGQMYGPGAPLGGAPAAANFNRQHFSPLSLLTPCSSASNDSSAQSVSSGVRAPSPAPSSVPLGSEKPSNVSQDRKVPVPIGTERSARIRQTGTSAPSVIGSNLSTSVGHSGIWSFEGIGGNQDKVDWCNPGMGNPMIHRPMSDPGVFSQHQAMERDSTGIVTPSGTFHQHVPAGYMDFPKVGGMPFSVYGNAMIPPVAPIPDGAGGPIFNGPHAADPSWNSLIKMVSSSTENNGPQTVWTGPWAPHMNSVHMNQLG
UniProt P07311: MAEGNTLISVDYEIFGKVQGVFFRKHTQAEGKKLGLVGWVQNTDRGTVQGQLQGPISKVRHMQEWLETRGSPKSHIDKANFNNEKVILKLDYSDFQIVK
UniProt Q86W74: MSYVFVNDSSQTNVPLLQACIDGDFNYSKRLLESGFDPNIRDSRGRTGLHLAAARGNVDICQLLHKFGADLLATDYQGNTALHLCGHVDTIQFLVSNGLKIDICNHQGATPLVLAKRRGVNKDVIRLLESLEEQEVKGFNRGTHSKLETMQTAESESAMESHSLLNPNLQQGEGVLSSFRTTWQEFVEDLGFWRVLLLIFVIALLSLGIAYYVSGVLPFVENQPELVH

Compound: COc1ccc(Cn2ccc3ccc(C(=O)NO)cc32)cc1
Assay: dose-dependent thermal stabilisation call (2D-TPP, DLPTP, 10% FDR) (binary (1 = stabilised)); higher = stabilised by the compound
Settings: system: HL-60 intact cells; concentration range 0.04-10 µM

ADAM9 (UniProt Q13443)
dose-dependent thermal stabilisation call: inactive: 0

APTX (UniProt Q7Z2E3)
dose-dependent thermal stabilisation call: inactive: 0

ACTR1B (UniProt P42025)
dose-dependent thermal stabilisation call: inactive: 0

ADPRHL2 (UniProt Q9NX46)
dose-dependent thermal stabilisation call: inactive: 0

AP1G1 (UniProt O43747)
dose-dependent thermal stabilisation call: inactive: 0

AGPAT5 (UniProt Q9NUQ2)
dose-dependent thermal stabilisation call: inactive: 0

ANKRD13D (UniProt Q6ZTN6)
dose-dependent thermal stabilisation call: inactive: 0

ARHGEF7 (UniProt Q14155)
dose-dependent thermal stabilisation call: inactive: 0

ACTN1 (UniProt P12814)
dose-dependent thermal stabilisation call: inactive: 0

ARCN1 (UniProt P48444)
dose-dependent thermal stabilisation call: inactive: 0

ADIPOR1 (UniProt Q96A54)
dose-dependent thermal stabilisation call: inactive: 0

ANXA5 (UniProt P08758)
dose-dependent thermal stabilisation call: inactive: 0

ANXA2 (UniProt P07355)
dose-dependent thermal stabilisation call: inactive: 0

ANAPC4 (UniProt Q9UJX5)
dose-dependent thermal stabilisation call: inactive: 0

ARIH2 (UniProt O95376)
dose-dependent thermal stabilisation call: inactive: 0

ARF4 (UniProt P18085)
dose-dependent thermal stabilisation call: inactive: 0

AGPAT1 (UniProt Q99943)
dose-dependent thermal stabilisation call: inactive: 0

ACLY (UniProt P53396)
dose-dependent thermal stabilisation call: active: 1

ANPEP (UniProt P15144)
dose-dependent thermal stabilisation call: inactive: 0

AGPAT3 (UniProt Q9NRZ7)
dose-dependent thermal stabilisation call: inactive: 0

ALDOA (UniProt P04075)
dose-dependent thermal stabilisation call: inactive: 0

ANKHD1-EIF4EBP3
dose-dependent thermal stabilisation call: inactive: 0

ALMS1 (UniProt Q8TCU4)
dose-dependent thermal stabilisation call: inactive: 0

ANP32B (UniProt Q92688)
dose-dependent thermal stabilisation call: inactive: 0

ANKRD17 (UniProt O75179)
dose-dependent thermal stabilisation call: inactive: 0

ACYP1 (UniProt P07311)
dose-dependent thermal stabilisation call: inactive: 0

ADRBK2 (UniProt P35626)
dose-dependent thermal stabilisation call: inactive: 0

ACTR5 (UniProt Q9H9F9)
dose-dependent thermal stabilisation call: inactive: 0

ARL1 (UniProt P40616)
dose-dependent thermal stabilisation call: inactive: 0

ARHGAP10 (UniProt A1A4S6)
dose-dependent thermal stabilisation call: inactive: 0

ANKRD46 (UniProt Q86W74)
dose-dependent thermal stabilisation call: inactive: 0

AHCY (UniProt P23526)
dose-dependent thermal stabilisation call: inactive: 0

ALG6 (UniProt Q9Y672)
dose-dependent thermal stabilisation call: inactive: 0

ACSF3 (UniProt Q4G176)
dose-dependent thermal stabilisation call: inactive: 0

APPL1 (UniProt Q9UKG1)
dose-dependent thermal stabilisation call: inactive: 0

ANXA1 (UniProt P04083)
dose-dependent thermal stabilisation call: inactive: 0

ALG13 (UniProt Q9NP73)
dose-dependent thermal stabilisation call: inactive: 0
